In publication PMC10369405 (JACS Au, 2023):
Results are given in words; binding and its absence hold for the method and conditions named. Some binding calls cover weakened binding; strength is not graded here.

Amino acid sequences for entries named in this document (tags omitted). A change or cut given only in a name is not applied to a line headed by its entry. Chains listed by the source or under a name are the forms on record and can include a tag or linker. Residues count along the entry.
human Caspase-1 p10 fragment (P29466, residues 317-404): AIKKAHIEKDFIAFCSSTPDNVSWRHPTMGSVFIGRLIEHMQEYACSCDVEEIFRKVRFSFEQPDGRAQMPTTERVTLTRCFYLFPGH
human Caspase-1 p20 fragment (C285A) (P29466, form named): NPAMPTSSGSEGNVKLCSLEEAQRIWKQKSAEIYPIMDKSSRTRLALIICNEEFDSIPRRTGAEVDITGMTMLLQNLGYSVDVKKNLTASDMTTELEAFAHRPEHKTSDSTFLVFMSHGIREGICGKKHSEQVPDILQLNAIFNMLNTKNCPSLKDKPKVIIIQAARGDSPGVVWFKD

Molecular target: human Caspase-1 p20 fragment (C285A) (human) (UniProt P29466)
Test: co-purification after refolding (His affinity, cation exchange, gel filtration); p20 and p10 co-expressed, inclusion bodies solubilised in GnHCl, refolded by rapid dilution, purified on HisTrap HP, SP HP HiTrap and Superdex 75

## human Caspase-1 p10 fragment (from UniProt P29466 317-404) (domain or fragment)
  binding: binds
